Laboratory results reported in paper doi:10.1101/2024.09.10.612318.
These are yes or no findings as the source states them, for the method shown. Some binding calls cover weakened binding; strength is not graded here. Sequences can lack the tags named with a protein.

Amino acid sequences for entries named in this document (tags omitted).
UniProt Q13547: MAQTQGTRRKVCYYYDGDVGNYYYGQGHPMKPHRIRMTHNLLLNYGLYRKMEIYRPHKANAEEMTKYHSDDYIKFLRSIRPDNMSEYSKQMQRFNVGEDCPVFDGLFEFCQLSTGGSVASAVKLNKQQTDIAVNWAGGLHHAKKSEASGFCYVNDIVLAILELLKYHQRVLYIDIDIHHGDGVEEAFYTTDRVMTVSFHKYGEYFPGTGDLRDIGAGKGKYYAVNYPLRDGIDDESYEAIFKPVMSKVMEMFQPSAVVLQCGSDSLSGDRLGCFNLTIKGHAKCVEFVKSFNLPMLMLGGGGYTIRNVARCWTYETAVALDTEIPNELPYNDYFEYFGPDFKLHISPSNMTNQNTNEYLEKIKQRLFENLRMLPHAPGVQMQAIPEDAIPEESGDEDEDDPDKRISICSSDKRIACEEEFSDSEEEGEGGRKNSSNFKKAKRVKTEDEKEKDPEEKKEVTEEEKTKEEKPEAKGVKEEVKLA

Biological target: T1, N-terminally 10xHis-3xFLAG-TEV tagged MIDEAS (UniProt Q6PJG2)
T1 sequence: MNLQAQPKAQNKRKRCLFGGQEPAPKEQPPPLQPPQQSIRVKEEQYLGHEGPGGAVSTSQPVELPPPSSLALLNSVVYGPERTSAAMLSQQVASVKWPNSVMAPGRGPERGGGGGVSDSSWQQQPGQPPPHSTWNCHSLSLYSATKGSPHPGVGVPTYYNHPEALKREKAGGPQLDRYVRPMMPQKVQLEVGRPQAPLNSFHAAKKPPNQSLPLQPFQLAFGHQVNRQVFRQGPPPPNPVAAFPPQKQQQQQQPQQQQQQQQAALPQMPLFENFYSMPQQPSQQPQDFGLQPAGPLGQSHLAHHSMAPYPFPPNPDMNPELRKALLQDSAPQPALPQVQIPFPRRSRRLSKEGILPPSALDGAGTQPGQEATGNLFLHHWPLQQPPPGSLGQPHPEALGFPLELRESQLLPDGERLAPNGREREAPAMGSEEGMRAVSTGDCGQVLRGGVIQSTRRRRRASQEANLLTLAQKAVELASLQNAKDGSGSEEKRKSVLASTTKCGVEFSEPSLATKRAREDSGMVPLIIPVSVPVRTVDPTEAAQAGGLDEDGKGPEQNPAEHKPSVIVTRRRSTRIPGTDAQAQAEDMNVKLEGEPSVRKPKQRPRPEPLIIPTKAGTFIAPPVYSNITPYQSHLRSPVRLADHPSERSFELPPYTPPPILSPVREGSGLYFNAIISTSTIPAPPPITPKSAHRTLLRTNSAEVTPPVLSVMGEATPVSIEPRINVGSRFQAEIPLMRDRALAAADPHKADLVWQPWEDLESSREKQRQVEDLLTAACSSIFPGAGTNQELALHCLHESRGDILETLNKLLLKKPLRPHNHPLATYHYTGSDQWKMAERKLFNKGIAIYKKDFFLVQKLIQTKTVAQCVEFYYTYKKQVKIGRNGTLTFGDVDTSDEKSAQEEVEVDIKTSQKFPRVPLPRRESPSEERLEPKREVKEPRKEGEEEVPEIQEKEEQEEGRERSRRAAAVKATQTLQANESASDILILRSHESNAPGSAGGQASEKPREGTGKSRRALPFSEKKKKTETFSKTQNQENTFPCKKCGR
Assay: co-purification (anti-FLAG immunoaffinity resin, then gel filtration); co-transfected HEK293F, lysate on anti-FLAG resin by tagged MIDEAS, RNaseA, TEV release, Superdex 200 Increase 10/300 GL in 25 mM HEPES pH 7.5, 50 mM potassium acetate, 0.5 mM TCEP

binding: binds
Substance: HDAC1 (of the MiDAC preparation) (from UniProt Q13547 1-482) (enzyme)
